According to publication PMC5069480:
These are yes or no findings as the source states them, for the method shown. In cells and extracts the contact can be indirect. Some results given as binding are weak or reduced against the parent protein; the word gives no strength. For part of these data: Sequences can lack the tags named with a protein.

T1: MYC-tagged full-length mouse MPP2 (MAGUK p55 subfamily member 2) (mouse) (UniProt Q9WV34)
T1 sequence: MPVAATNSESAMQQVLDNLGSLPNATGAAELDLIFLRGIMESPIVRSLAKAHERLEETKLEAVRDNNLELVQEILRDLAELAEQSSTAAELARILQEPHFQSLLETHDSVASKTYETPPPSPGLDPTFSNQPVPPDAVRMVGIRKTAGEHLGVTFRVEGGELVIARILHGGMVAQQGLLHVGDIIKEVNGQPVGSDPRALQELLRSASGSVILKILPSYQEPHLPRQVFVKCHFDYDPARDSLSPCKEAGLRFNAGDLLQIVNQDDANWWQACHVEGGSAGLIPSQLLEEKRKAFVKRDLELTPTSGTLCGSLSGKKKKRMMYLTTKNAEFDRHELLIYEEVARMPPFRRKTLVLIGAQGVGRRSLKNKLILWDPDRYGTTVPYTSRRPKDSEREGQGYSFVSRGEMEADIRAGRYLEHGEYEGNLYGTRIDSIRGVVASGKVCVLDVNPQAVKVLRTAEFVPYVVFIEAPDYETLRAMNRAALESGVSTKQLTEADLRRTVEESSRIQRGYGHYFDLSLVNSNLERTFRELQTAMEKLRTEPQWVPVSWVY

T2: full-length HA-tagged rat SynCAM1 (rat) (UniProt Q6AYP5)
T2 sequence: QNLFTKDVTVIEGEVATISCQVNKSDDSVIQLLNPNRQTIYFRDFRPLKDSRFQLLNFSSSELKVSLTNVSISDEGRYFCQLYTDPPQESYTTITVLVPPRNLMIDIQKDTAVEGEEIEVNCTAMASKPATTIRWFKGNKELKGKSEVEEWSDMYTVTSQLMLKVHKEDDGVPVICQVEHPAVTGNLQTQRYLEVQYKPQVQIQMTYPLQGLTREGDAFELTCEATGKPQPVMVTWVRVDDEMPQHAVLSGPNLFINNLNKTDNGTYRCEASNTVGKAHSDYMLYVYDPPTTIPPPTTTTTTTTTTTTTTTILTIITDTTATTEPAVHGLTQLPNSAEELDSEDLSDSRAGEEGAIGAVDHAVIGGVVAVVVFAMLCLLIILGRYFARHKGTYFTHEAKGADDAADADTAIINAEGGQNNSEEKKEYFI

T3: endogenous SynCAM1 from rat brain crude synaptosomes (rat (endogenous in rat brain)) (UniProt Q6AYP5)
T3 sequence: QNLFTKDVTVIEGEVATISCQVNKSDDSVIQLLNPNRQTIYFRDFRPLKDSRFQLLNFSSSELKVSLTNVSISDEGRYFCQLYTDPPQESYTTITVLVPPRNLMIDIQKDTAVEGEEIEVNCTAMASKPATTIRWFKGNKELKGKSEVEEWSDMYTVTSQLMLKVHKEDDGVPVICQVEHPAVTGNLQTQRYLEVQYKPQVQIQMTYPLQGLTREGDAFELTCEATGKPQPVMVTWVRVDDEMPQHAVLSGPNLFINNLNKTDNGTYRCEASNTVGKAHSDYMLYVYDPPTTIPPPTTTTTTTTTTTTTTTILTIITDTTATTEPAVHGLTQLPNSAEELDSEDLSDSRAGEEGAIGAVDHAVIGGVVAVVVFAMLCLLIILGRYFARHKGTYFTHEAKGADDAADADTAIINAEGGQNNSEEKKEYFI


Experiments:
[1] = biological target: T1, MYC-tagged full-length mouse MPP2 (MAGUK p55 subfamily member 2) (mouse); experiment: co-IP; tagged recombinant proteins coexpressed in COS7 cells; lysis in 50 mM Tris pH 7.4, 100 mM NaCl, 1 mM EDTA, 1% Triton-X or 0.1% NP-40; IP with anti-MYC, anti-HA or anti-PSD-95 antibody (mouse IgG as control), protein-G-agarose, 4 °C; western blot
[2] = biological target: T2, full-length HA-tagged rat SynCAM1 (rat); experiment: as above
[3] = biological target: T3, endogenous SynCAM1 from rat brain crude synaptosomes (rat (endogenous in rat brain)); experiment: co-IP; endogenous proteins from adult rat brain crude synaptosomes in 50 mM Tris pH 7.4, 100 mM NaCl, 1 mM EDTA, 1% Triton-X; IP with mouse anti-Stargazin/TARPγ2 or rabbit anti-MPP2 and protein-G-agarose, or chicken anti-SynCAM-Biotin and streptavidin Dynabeads; IgG or IgY controls; western blot

binding [1] | binding [2] | binding [3] | Binder
binds | binds | – | MYC-tagged full-length mouse MPP2 (MAGUK p55 subfamily member 2) (protein, UniProt Q9WV34-1 1-552) MPVAATNSESAMQQVLDNLGSLPNATGAAELDLIFLRGIMESPIVRSLAKAHERLEETKLEAVRDNNLELVQEILRDLAELAEQSSTAAELARILQEPHFQSLLETHDSVASKTYETPPPSPGLDPTFSNQPVPPDAVRMVGIRKTAGEHLGVTFRVEGGELVIARILHGGMVAQQGLLHVGDIIKEVNGQPVGSDPRALQELLRSASGSVILKILPSYQEPHLPRQVFVKCHFDYDPARDSLSPCKEAGLRFNAGDLLQIVNQDDANWWQACHVEGGSAGLIPSQLLEEKRKAFVKRDLELTPTSGTLCGSLSGKKKKRMMYLTTKNAEFDRHELLIYEEVARMPPFRRKTLVLIGAQGVGRRSLKNKLILWDPDRYGTTVPYTSRRPKDSEREGQGYSFVSRGEMEADIRAGRYLEHGEYEGNLYGTRIDSIRGVVASGKVCVLDVNPQAVKVLRTAEFVPYVVFIEAPDYETLRAMNRAALESGVSTKQLTEADLRRTVEESSRIQRGYGHYFDLSLVNSNLERTFRELQTAMEKLRTEPQWVPVSWVY
– | – | binds | endogenous MPP2 from rat brain crude synaptosomes (protein, UniProt D3ZAA9 1-552) MPVAATNSESAMQQVLDNLGSLPNATGAAELDLIFLRGIMESPIVRSLAKAHERLEETKLEAVRDNNLELVQEILRDLAELAEQSSTAAELARILQEPHFQSLLETHDSVASKTYETPPPSPGLDPTFSNQPVPPDAVRMVGIRKTAGEHLGVTFRVEGGELVIARILHGGMVAQQGLLHVGDIIKEVNGQPVGSDPRALQELLRSASGSVILKILPSYQEPHLPRQVFVKCHFDYDPARDSLIPCKEAGLRFNAGDLLQIVNQDDANWWQACHVEGGSAGLIPSQLLEEKRKAFVKRDLELTPTSGTLCGSLSGKKKKRMMYLTTKNAEFDRHELLIYEEVARMPPFRRKTLVLIGAQGVGRRSLKNKLILWDPDRYGTTVPYTSRRPKDSEREGQGYSFVSRGEMEADIRAGRYLEHGEYEGNLYGTRIDSIRGVVASGKVCVLDVNPQAVKVLRTAEFVPYVVFIEAPDFETLRAMNRAALESGVSTKQLTEADLRRTVEESSRIQRGYGHYFDLSLVNSNLERTFRELQTAMEKLRTEPQWVPVSWVY
